# From PubChem BioAssay AID493014 (National Center for Advancing Translational Sciences (NCATS), 2011)
# Some of the results follow. Shown are side measurements of this screen, not its main read-out; they come without a call. Most of these compounds were active or inconclusive in the main read-out, so they are no random draw. Words in brackets tell the shape of the fitted curve; partial curves, single points and poor fits give uncertain potencies.
# Assay: qHTS Assay to Find Inhibitors of Chronic Active B-Cell Receptor Signaling
# Conditions: ABC-DLBCL IkBa-CBG/CBR reporter, luminescence ratio (green luciferase fused to IkBa over red control in TMD8 lymphoma cells), 4 h
# Method in brief: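 Compounds up to 46 uM were incubated four hours with TMD8 cells whose green CBG68 luciferase is fused to IkappaBalpha; red CBR luminescence normalised the signal, and concentration-effect curves were fitted to fusion, red and ratio data.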
# [1] = measured here: CBR red luminescence, cell number
# [2] = measured here: IkBa-CBG green luminescence
Compound,AC50 [1],AC50 [2]
CCCCCC(=O)Nc1ccc(C2C(=O)c3ccccc3C2=O)cc1,"15.8 µM [rising, single point]",–
CC1CCN(CCOc2ccc(Cl)c(Cl)c2)CC1,"29.1 µM [rising, single point]",–
O=C(Nc1c(C(=O)O)oc2ccc(Br)cc12)c1ccccc1,"10 µM [falling, single point]",–
Cc1nn(-c2ccc(C(F)(F)F)cn2)c(C)c1Oc1ccccc1O,"29.1 µM [falling, single point]",–
CCOC(=O)C(=O)/C(C#N)=C/Nc1ccc(Cl)cc1,"4.61 µM [falling, partial curve, poor fit]",–
CN(C)c1ccc(C(=O)OCC#CCSc2nnc(-c3cccc4ccccc34)o2)cc1,"4.11 µM [rising, single point]",–
COC(=O)c1ccc(COc2cccc3c2CCN(Cc2ccccc2)C3=O)o1,"14.6 µM [falling, single point]",–
Cc1ccc(-n2cc(C(=O)O)c(=O)cc2C)c(C)c1,"35.5 µM [rising, single point]",–
CCOc1ccc(OCCC(=O)OCC(=O)Nc2cc(OCC)c(N3CCOCC3)cc2OCC)cc1,"14.6 µM [falling, partial curve]","9.2 µM [rising, partial curve, poor fit]"
CCOc1cccc(/C=N/NC(=S)Nc2ccccc2[N+](=O)[O-])c1O,"2.51 µM [falling, single point]",–
Cc1c(C(=O)OCC(C)C)[nH]c2c1C(=O)CC(c1ccco1)C2 (centres undefined),"2.31 µM [rising, full curve]","2.59 µM [falling, partial curve, poor fit]"
Cc1cc2n(n1)CCCN2C(=O)Nc1ccc(Cl)cc1,"5.62 µM [rising, partial curve, poor fit]",–
O=C(/C=C/c1c(Cl)cccc1Cl)N1CCOCC1,"35.5 µM [rising, single point]",–
Cc1nc2ccc(C(=O)N3CCCC(CO)(Cc4ccc(F)cc4F)C3)cc2nc1C (centres undefined),"10 µM [falling, partial curve, poor fit]",–
CN(CC(=O)Nc1ccc(F)cc1)C(=O)c1cccc(S(=O)(=O)N2CCN(c3ccc(F)cc3)CC2)c1,"16.4 µM [falling, single point]",–
COc1ccc(-n2cc(CNCCCn3ccnc3)c(-c3cccc(F)c3)n2)cc1,"12.6 µM [falling, partial curve, poor fit]",–
O=C(NN=Cc1c(O)ccc2ccccc12)c1ccc2c(c1)OCO2,"3.66 µM [falling, full curve, poor fit]",–

# Arranged by heavy-atom count (descending): 3 of the compounds above
Compound,AC50 [1],AC50 [2]
CCCCCC(=O)Nc1ccc(C2C(=O)c3ccccc3C2=O)cc1,"15.8 µM [rising, single point]",–
Cc1ccc(-n2cc(C(=O)O)c(=O)cc2C)c(C)c1,"35.5 µM [rising, single point]",–
CC1CCN(CCOc2ccc(Cl)c(Cl)c2)CC1,"29.1 µM [rising, single point]",–
